Data set [1] is described as follows: in vitro. The settings on record: dog, MDCK.
Data set [2] in a line: in vitro. The settings on record: mouse, plasma.
Data set [3] is described as follows: in vitro. The settings on record: human, plasma.
A short description of data set [4]: in vitro. The settings on record: human, plasma. The source holds these as a separate data set.
Data set [5] in a line: in vitro. The settings on record: dog, MDCK. The source holds these as a separate data set.
Data set [6] is described as follows: in vitro. The settings on record: dog, MDCK. This is another data set of the same source.
In data set [7] the target is NAD-dependent protein deacylase sirtuin-5, mitochondrial (Homo sapiens, UniProt Q9NXA8).
Data set [8] can be described thus: in vitro. The settings on record: human, microsomes.
Data set [9] is described as follows: in vitro. The settings on record: mouse, microsomes.
Data set [10] in a line: in vitro. The settings on record: mouse, plasma. The source holds these as a separate data set.
In data set [11] the target is T1, NAD-dependent protein deacetylase sirtuin-3, mitochondrial (Homo sapiens, UniProt Q9NTG7).
T1 sequence (Q9NTG7 whole entry): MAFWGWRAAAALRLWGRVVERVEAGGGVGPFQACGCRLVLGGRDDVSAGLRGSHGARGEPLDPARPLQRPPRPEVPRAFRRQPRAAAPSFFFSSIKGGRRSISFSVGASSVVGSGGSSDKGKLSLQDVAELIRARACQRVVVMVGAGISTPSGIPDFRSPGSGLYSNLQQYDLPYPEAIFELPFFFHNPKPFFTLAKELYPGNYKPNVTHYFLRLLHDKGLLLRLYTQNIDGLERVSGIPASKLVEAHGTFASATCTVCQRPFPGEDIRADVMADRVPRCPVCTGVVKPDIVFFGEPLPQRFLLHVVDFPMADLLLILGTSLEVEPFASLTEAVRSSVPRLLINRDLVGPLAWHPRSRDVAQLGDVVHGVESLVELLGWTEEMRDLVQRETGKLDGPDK
The data set is described as follows: biochemical.

Chains of the proteins cited; added tags and fusions are not shown. Lines headed by an entry give the natural chain unless they say otherwise; changes in a name come on top.
UniProt Q9NXA8: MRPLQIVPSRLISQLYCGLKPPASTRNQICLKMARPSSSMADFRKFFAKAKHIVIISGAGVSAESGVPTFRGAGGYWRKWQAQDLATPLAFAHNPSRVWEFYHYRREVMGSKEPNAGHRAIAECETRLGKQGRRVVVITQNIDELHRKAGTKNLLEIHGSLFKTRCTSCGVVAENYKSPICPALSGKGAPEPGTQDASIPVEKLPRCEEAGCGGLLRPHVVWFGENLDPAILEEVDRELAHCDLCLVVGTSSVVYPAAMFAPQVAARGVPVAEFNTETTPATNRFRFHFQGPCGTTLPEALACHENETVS

The values below come from ChEMBL document CHEMBL3804824, “5-((3-Amidobenzyl)oxy)nicotinamides as Sirtuin 2 Inhibitors” (J Med Chem, 2016).

`NC(=O)c1cncc(OCc2cccc(NC(=O)c3ccc(N4CCOCC4)cc3)c2)c1` showed a recovery at 3 h, 25 µM in the data set “in vitro [1]” above 90%. Besides, the amount remaining (commonly the share of the starting amount still present when the sample was taken) at 6 h was found to be 74% in the data set “in vitro [2]” and 98% in “in vitro [4]”. Also, the fraction remaining at 24 h in “in vitro [3]” came out at 98%; in “in vitro [10]” it was 35%. Further, the apical-to-basolateral permeability (Papp A→B) (in general, the apparent permeability from the apical to the basolateral side of a cell layer) at 3 h, 25 µM in the data set “in vitro [5]” came to 5.7 ×10⁻⁶ cm/s. The Papp B→A – broadly, the apparent permeability from the basolateral to the apical side of a cell layer – at 3 h, 25 µM in “in vitro [6]” stood at 6.8 ×10⁻⁶ cm/s. The half-inhibitory concentration (IC50) – broadly, the concentration that inhibits the measured activity by half – in data set [7] is above 200 µM. Moreover, the half-life (usually how long it takes for the measured level to halve) at 1 µM in the data set “in vitro [8]” was determined as 55 min; in “in vitro [9]”, 14 min.

`NC(=O)c1cncc(OCc2cccc(NC(=O)c3ccncc3)c2)c1` gave a recovery at 3 h, 25 µM in the data set “in vitro [1]” above 90%. Moreover, the fraction remaining at 6 h in the data set “in vitro [2]” was found to be 63%; in “in vitro [4]”, 97%. Besides, the affinity in [11], expressed as Ki, was 7.2 µM. Besides, the fraction remaining at 24 h worked out at 99% in the data set “in vitro [3]” and 7.9% in “in vitro [10]”. Also, the Papp A→B at 3 h, 25 µM in “in vitro [5]” was 16 ×10⁻⁶ cm/s. The compound also gave a Papp B→A at 3 h, 25 µM in “in vitro [6]” of 12 ×10⁻⁶ cm/s. The same compound registered an IC50 in [7] above 200 µM. The half-life at 1 µM is 408 min in the data set “in vitro [8]” and 64 min in “in vitro [9]”.
